In paper PMC3777959:
These are yes or no findings as the source states them, for the method shown. In cells and extracts the contact can be indirect. A result given as binding can be weak or reduced; the word gives no strength.

Protein sequences, listed by entry. Tags and fused reporters are not part of them. Lines headed by an entry give the natural chain unless they say otherwise; changes in a name come on top.
UniProt Q9Y266: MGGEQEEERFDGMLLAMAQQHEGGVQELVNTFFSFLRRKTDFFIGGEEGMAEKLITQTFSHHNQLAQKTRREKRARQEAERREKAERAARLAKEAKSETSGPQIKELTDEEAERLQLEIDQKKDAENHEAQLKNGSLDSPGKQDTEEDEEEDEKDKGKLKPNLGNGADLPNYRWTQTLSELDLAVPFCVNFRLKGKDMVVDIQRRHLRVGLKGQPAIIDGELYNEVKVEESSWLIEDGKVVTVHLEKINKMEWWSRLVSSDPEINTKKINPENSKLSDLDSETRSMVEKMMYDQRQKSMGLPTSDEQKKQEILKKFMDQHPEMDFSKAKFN
UniProt P53350: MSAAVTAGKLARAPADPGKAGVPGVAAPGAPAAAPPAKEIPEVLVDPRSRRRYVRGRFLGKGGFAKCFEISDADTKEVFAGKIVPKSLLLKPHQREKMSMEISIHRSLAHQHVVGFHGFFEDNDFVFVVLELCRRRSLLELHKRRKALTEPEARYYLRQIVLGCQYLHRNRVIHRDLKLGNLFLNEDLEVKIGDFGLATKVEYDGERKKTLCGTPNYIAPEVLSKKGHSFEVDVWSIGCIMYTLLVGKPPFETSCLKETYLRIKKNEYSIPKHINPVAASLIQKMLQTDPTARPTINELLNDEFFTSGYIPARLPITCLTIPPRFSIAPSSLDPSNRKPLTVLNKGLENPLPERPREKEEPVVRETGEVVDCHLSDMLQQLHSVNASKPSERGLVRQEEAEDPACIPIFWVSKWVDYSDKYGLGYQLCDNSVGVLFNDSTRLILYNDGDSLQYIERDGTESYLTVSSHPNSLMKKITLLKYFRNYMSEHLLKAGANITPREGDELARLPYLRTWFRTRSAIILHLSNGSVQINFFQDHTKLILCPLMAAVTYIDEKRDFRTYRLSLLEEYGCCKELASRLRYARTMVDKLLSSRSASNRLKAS
UniProt O15379: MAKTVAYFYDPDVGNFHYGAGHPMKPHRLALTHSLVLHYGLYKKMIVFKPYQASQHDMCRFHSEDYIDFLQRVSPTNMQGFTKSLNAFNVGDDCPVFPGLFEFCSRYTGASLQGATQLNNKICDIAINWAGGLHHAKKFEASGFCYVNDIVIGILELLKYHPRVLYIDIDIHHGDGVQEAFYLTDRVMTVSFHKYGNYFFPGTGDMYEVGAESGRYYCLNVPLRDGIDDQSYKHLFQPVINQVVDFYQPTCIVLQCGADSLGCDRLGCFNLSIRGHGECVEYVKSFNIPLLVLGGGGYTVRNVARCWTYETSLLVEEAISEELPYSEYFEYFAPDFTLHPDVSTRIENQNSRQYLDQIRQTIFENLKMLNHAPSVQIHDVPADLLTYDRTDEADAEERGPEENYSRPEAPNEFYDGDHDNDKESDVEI

Tests used:
EGFP-NudC K39Q (human) = EGFP-NudC K39Q (human) (UniProt Q9Y266); test: co-IP; HeLa cells transfected with EGFP-NudC WT, K39R or K39Q for 24 h, enriched in mitosis (thymidine and nocodazole block and release); lysates (2 mg) immunoprecipitated with GFP antibody, blotted for HDAC3, Plk1 and GFP; IgG as antibody control
EGFP-NudC K39R (human) = EGFP-NudC K39R (human) (UniProt Q9Y266); test: as above

| binding (EGFP-NudC K39Q (human)) | binding (EGFP-NudC K39R (human)) | Substance |
| --- | --- | --- |
| binds | binds | polo-like kinase 1 (Plk1) (from UniProt P53350 1-603) (enzyme) |
| binds | binds | histone deacetylase HDAC3 (from UniProt O15379 1-428) (enzyme) |
